# In patent US11879021B2 (UNIVERSITÉ DE MONTRÉAL, priority 2016, dated 2024):
# Test: general procedure: Fmoc solid-phase peptide synthesis; polystyrene Rink amide resin (0.50 mmol/g); CEM SpheriTide resin (0.85 mmol/g) for 26, 27 and 34; DIC/HOBt
# Settings: whole synthesis
substance,measurement,value
"Boc-Val-Aza-Pra-D-Trp(Boc)-Ala-Trp(Boc)-D-Phe-Lys(o-NBS, Allyl)-Rink Amide Resin 22c",difficulty met,showed incomplete coupling despite repetition
